AC50 data for 39 molecules are collected here from PubChem BioAssay AID445 (National Center for Advancing Translational Sciences (NCATS), 2006).

The nature of this assay: IkB Signaling. Conditions: ABC-DLBCL IkBa-CBG/CBR dual luciferase ratio (green luciferase fused to IkBa over red control in OCI-Ly3 lymphoma cells), 4 h. An outline of the steps:
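Curves were fitted separately to fusion (green), unfused (red) and ratio luminescence, then classed by r2, magnitude and activity. Cells: OCI-Ly3, 4 h compound plus doxycycline at 37C; 10 uM MG-132 defined full response.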

Setting [1] is: measured here: control luc red channel unless noted.
Setting [2] is: measured here: IkB-luc green channel.
The mark [3] stands for this setting: measured here: control luc red channel.

This is one part of the list. These are further read-outs of the screen, such as a control signal, another cell line or another target. No call is given for them. Compounds called inactive in the main read-out are mostly missing here. Potencies come from curve fits of mixed quality, noted in brackets.

The term AC50 denotes the concentration giving half of the maximal activity seen. On to `Cc1ccc(NC(=O)c2ccc(F)c(S(=O)(=O)N3CCc4ccccc4C3)c2)cc1F`, for which the AC50 under setting [1] is 10 µM [falling, partial curve]. The same measure, in the same setting: then `Cc1ccc(-n2c(SCC(=O)N3CCC(C)CC3)nc3c([nH]c4ccccc43)c2=O)cc1`, with 3.16 µM [rising, full curve, poor fit].

With `CCOC(=O)c1[nH]c2c(c1C)C(=O)CC(c1ccc(F)cc1)C2` (stereo unspecified), the AC50 under setting [2] was 3.98 µM [rising, full curve] and the AC50 under setting [3] is 1.58 µM [rising, full curve, poor fit]. For the molecule `CCOC(=O)c1scc(-c2ccc(C)cc2)c1S(=O)(=O)Nc1ccc(F)c(F)c1`, the concentration at half-maximal activity (AC50) under setting [1] was 12.6 µM [falling, partial curve]. The same measure, in the same setting: with `Cn1c(=O)n(CCCc2ccccc2)c(=O)c2c1nc1n2CCN1c1ccccc1` the figure was 31.6 µM [falling, single point]; with `CCOC(=O)c1ccc(NC(=O)CN2C(=O)CC(c3ccc(C)c(C)c3)=Nc3ccccc32)cc1`, 20 µM [rising, partial curve]; with `CCOC(=O)N1CCc2c(sc(NCc3sccc3C)c2C(=O)Nc2ccccc2OCC)C1`, 25.1 µM [falling, partial curve]. Still for that read-out and setting: then `CCOc1ccc(CCNC(=O)c2ccc3c(c2)N(Cc2cccc(Cl)c2)C(=O)c2ccccc2S3(=O)=O)cc1OCC`, with 0.398 µM [rising, full curve]; and `CCCCNC1C(CC)C(CCC)C(C#N)(C#N)C1(C#N)C#N` (stereo unspecified), with 7.94 µM [falling, partial curve]; and `Cc1ccc(NC(=O)CSc2nnc3ccc4ccccc4n23)cc1`, with 1.26 µM [rising, full curve]. The same measure, in the same setting: then `Cc1cccc(C(=O)NCC(c2ccco2)S(=O)(=O)c2cccs2)c1` (stereo unspecified), with 5.01 µM [falling, full curve, poor fit].

As for `Cc1cccc(NC(=O)c2ccc(-c3ccccc3)s2)c1`, the AC50 under setting [1] was 3.98 µM [falling, partial curve]. With `CCC(Oc1ccccc1)C(=O)Nc1nnc(S(=O)(=O)N(CC)CC)s1` (stereo unspecified), the AC50 under setting [1] is 3.16 µM [falling, partial curve].

On to `CCc1ccc(NC(=O)c2cnn(-c3ccccc3)c2-n2cccc2)cc1`, for which the AC50 under setting [1] was 20 µM [falling, single point]. In the case of `CCC(C)c1ccc2oc(-c3ccc(NC(=O)c4cc5ccccc5o4)cc3)nc2c1` (stereo unspecified), the AC50 under setting [1] was 10 µM [falling, partial curve, poor fit]. Same read-out and setting: then `Cc1cccc(Cn2c(=O)n3nc(-c4ccccc4)nc3c3ccccc32)c1`, with 6.31 µM [falling, full curve]; and `CCCC(=O)Nc1nnc(S(=O)(=O)N(C)Cc2ccc(Cl)cc2)s1`, with 5.01 µM [falling, full curve]; and `Cn1c(=O)[nH]c2cc(-c3noc(-c4ccc(Br)cc4)n3)ccc21`, with 2 µM [rising, full curve]. On the same count and under the same terms, then `COc1ccccc1Nc1nc(-c2ccccc2F)nc2ccccc12`, with 12.6 µM [falling, partial curve]; and `COc1ccc(OC)c(S(=O)(=O)Nc2ccc3oc4c(c3c2)C(=O)CCC4)c1`, with 10 µM [falling, partial curve]; and `COc1cc2c(C(=O)Nc3cc(OC)c(OC)c(OC)c3)cn(C)c(=O)c2cc1OC`, with 15.8 µM [falling, partial curve]. Same read-out and setting: with `Cc1ccc(-n2nc(C)c3c2OC(N)=C(C#N)C3c2ccc(F)cc2)cc1` (stereo unspecified) the figure was 15.8 µM [falling, partial curve]. `CCN(CC)S(=O)(=O)c1ccc2c(c1)N(CC(=O)Nc1ccccc1F)C(=O)C1CCCN21` (stereo unspecified): under setting [1], the AC50 was 15.8 µM [falling, partial curve].

For the molecule `Cc1cnc(NC(=O)CSc2nnc(-c3ccccc3)n2Cc2ccccc2)s1`, under setting [1], the AC50 was 15.8 µM [falling, partial curve].

`O=C1CS(=O)(=O)C2(C(=O)N(Cc3ccccc3Cl)c3ccccc32)N1c1ccc(F)cc1` (stereo unspecified): the AC50 under setting [1] is 10 µM [falling, partial curve]. Take `CCOc1cccc(NC(=O)C2CC(=O)N(CC)C(=Nc3ccc(F)cc3)S2)c1` (stereo unspecified): the AC50 under setting [1] was 31.6 µM [falling, single point]. The same measure, in the same setting: with `Cc1ccc(NC(=O)/C(C#N)=C/c2ccc(-c3ccc(Cl)c(C(=O)O)c3)o2)cc1C` the figure was 12.6 µM [falling, partial curve]. In the case of `CCOc1ccc(CCNC(=O)c2cc3cccc4c3n2CCS4)cc1`, under setting [1], the AC50 is 20 µM [falling, partial curve]. Still for that read-out and setting: with `COC(=O)c1c(-c2ccc(Cl)cc2)noc1N1CCN(c2cc(C)ccc2C)CC1` the figure was 1.58 µM [falling, partial curve]; with `COc1cccc(CN2CCN(C(=O)c3cccc4ccccc34)CC2)c1OC`, 31.6 µM [falling, single point]. As for `CCCn1c(SCC(=O)Nc2ccccc2-c2ccccc2)nnc1-c1ccoc1C`, the half-maximal activity concentration (AC50) under setting [1] was 31.6 µM [falling, single point]. As for `Cc1cc(C)c(NC(=O)CSc2ncc3c(n2)-c2cc(Cl)ccc2N(C)S3(=O)=O)c(C)c1`, the AC50 under setting [2] was 1.58 µM [rising, full curve] and the concentration at half-maximal activity (AC50) under setting [3] was 1.58 µM [rising, full curve].

On to `C=Cc1ccc(Cn2c(C(=O)O)c(CNCc3ccc(F)cc3)c3ccc(C)cc32)cc1`, for which the AC50 under setting [1] is 12.6 µM [falling, partial curve]. The same measure, in the same setting: then `COC(=O)c1c(NC(=O)c2ccc(S(=O)(=O)N3CCC(C)CC3)cc2)sc2c1CCN(C)C2`, with 31.6 µM [falling, single point]. Turning to `Cc1ccccc1CNC(=O)c1cnc2sc(N3CCC(C)CC3)nn2c1=O`, under setting [1], the concentration at half-maximal activity (AC50) is 10 µM [rising, partial curve]. Still for that read-out and setting: then `Cc1cc(C)c(NC(=O)C2CCN(c3nc4ccccc4n4cccc34)CC2)c(C)c1`, with 20 µM [falling, partial curve]; and `Cc1sc2nc(SCc3nc4ccccc4[nH]3)n(Cc3ccco3)c(=O)c2c1C`, with 2 µM [falling, full curve]. For the molecule `CN(C(=O)CSc1nnc(NC(=O)Nc2ccccc2)s1)c1ccccc1`, the AC50 under setting [1] was 39.8 µM [falling, single point].

In the case of `Brc1cccc(-c2nnn3c2nc(NCc2ccc4c(c2)OCO4)c2ccccc23)c1`, the half-maximal activity concentration (AC50) under setting [1] was 0.0631 µM [falling, full curve].
